Test results from PubChem BioAssay AID330 (DTP/NCI, 2004).
The list is a part of this screen's results and no random one: it is rich in T/C values a quarter to a half above the control, in often repeated tests (any T/C) and in doses without a T/C. Other doses and runs of a compound stand elsewhere. T/C gives the treated animals as a percentage of the vehicle group. Some entries give survivors of the animals treated and no T/C: the source files T/C as zero there, which appears to mark a toxic dose or a test without result, not a measured value. Some doses without a T/C left all or most animals alive at the check, yet need not have been tolerated: the source hardly ever lists a survival T/C far under the control, and the zero likely stands for such cases as well. Survivors were counted at the toxicity check, usually on the fifth day, unless a day is given; later deaths do not show. Schedule codes are those of the source, read here as Q, the interval in days (D) or hours (H), X, the number of doses. Some doses were run more than once; the values are given in rising order. For survival time, the PubChem record calls one and a half times the control and up active, and a quarter to a half above the control has no call in these data; cut-offs in other NCI protocols can differ.

System: P388 leukemia ip, CD2F1 mice, survival T/C
Test: NCI In Vivo Anticancer Drug Screen. Data for tumor model P388 Leukemia (intraperitoneal) in CD2F1 (CDF1) mice
Conditions: T/C endpoint: median survival time, higher T/C = longer survival
[1] = dose: 12.5 mg/kg/injection, schedule: Q01DX009 (ip), vehicle: Klucel (hydroxypropylcellulose) (HPC)
[2] = dose: 25.0 mg/kg/injection, schedule: Q01DX009 (ip), vehicle: Klucel (hydroxypropylcellulose) (HPC)
[3] = dose: 50.0 mg/kg/injection, schedule: Q01DX009 (ip), vehicle: Klucel (hydroxypropylcellulose) (HPC)
[4] = dose: 100.0 mg/kg/injection, schedule: Q01DX009 (ip), vehicle: Klucel (hydroxypropylcellulose) (HPC)
[5] = dose: 100.0 mg/kg/injection, schedule: Q04DX002 (ip), vehicle: saline with Tween-80
[6] = dose: 60.0 mg/kg/injection, schedule: Q01DX005 (ip), vehicle: saline with Tween-80
[7] = dose: 120.0 mg/kg/injection, schedule: Q01DX005 (ip), vehicle: saline with Tween-80
[8] = dose: 240.0 mg/kg/injection, schedule: Q01DX005 (ip), vehicle: saline with Tween-80
[9] = dose: 120.0 mg/kg/injection, schedule: Q01DX005 (ip), vehicle: Klucel (hydroxypropylcellulose) (HPC)
[10] = dose: 100.0 mg/kg/injection, schedule: Q01DX005 (ip), vehicle: saline with Tween-80
[11] = dose: 200.0 mg/kg/injection, schedule: Q01DX005 (ip), vehicle: saline with Tween-80
[12] = dose: 50.0 mg/kg/injection, schedule: Q01DX005 (ip), vehicle: saline with Tween-80
[13] = dose: 100.0 mg/kg/injection, schedule: Q01DX009 (ip), vehicle: saline with Tween-80
[14] = dose: 200.0 mg/kg/injection, schedule: Q01DX009 (ip), vehicle: saline with Tween-80
[15] = dose: 25.0 mg/kg/injection, schedule: Q01DX009 (ip), vehicle: saline with Tween-80
[16] = dose: 50.0 mg/kg/injection, schedule: Q01DX009 (ip), vehicle: saline with Tween-80

C/C(=N\NC(N)=S)c1ccccc1 was tested, and the T/C [1] was 128 % of control, the survivor count [2] was 2 of 6 and 3 of 6 and the survivor count [3] was 0 of 6. The survivor count [4] was 0 of 6, the survivor count (dose: 200.0 mg/kg/injection, schedule: Q01DX009 (ip), vehicle: Klucel (hydroxypropylcellulose) (HPC)) was 0 of 6 and the survivor count (dose: 400.0 mg/kg/injection, schedule: Q01DX009 (ip), vehicle: Klucel (hydroxypropylcellulose) (HPC)) was 0 of 6.

CCCCCCCC/C=C\C(O)=C1\C(=O)NC(CCCNC(=O)OCc2ccccc2)C1=O (configuration not stated) was tested, and the survivor count [5] was 6 of 6.

For COc1ccc2sc3cc(Cl)ccc3c(=O)c2c1, the survivor count (dose: 7.5 mg/kg/injection, schedule: Q01DX005 (ip), vehicle: saline with Tween-80) was 6 of 6, the survivor count (dose: 30.0 mg/kg/injection, schedule: Q01DX005 (ip), vehicle: saline with Tween-80) was 6 of 6 and the survivor count [6] was 6 of 6. For the same compound, the survivor count [7] was 6 of 6 and the survivor count [8] was 6 of 6.

For COc1cc2c(cc1-c1coc3cc4occc4cc3c1=O)OCO2, the survivor count (dose: 17.5 mg/kg/injection, schedule: Q01DX005 (ip), vehicle: saline with Tween-80) was 6 of 6.

For CN1CC(C2(O)CCN(C)C2=O)C(O)C1=O (configuration not stated), the survivor count (dose: 400.0 mg/kg/injection, schedule: Q01DX001 (ip), vehicle: saline) was 3 of 6.

With O=C1N[C@@H]2C(=C[C@H](O)[C@@H](O)[C@H]2O)c2cc3c(c(O)c21)OCO3 the T/C (dose: 1.25 mg/kg/injection, schedule: Q01DX009 (ip), vehicle: saline with Tween-80) was 129 % of control and the survivor count (dose: 5.0 mg/kg/injection, schedule: Q01DX009 (ip), vehicle: saline with Tween-80) was 3 of 6.

COc1ccc(C2OC3=C(Nc4ccc([N+](=O)[O-])cc4N3)C2=O)cc1 (configuration not stated) was tested, and the survivor count (dose: 7.5 mg/kg/injection, schedule: Q01DX005 (ip), vehicle: Klucel (hydroxypropylcellulose) (HPC)) was 6 of 6, the survivor count (dose: 15.0 mg/kg/injection, schedule: Q01DX005 (ip), vehicle: Klucel (hydroxypropylcellulose) (HPC)) was 6 of 6 and the survivor count (dose: 30.0 mg/kg/injection, schedule: Q01DX005 (ip), vehicle: Klucel (hydroxypropylcellulose) (HPC)) was 6 of 6. For the same compound, the survivor count (dose: 60.0 mg/kg/injection, schedule: Q01DX005 (ip), vehicle: Klucel (hydroxypropylcellulose) (HPC)) was 6 of 6, the survivor count [9] was 2 of 6 and the survivor count (dose: 240.0 mg/kg/injection, schedule: Q01DX005 (ip), vehicle: Klucel (hydroxypropylcellulose) (HPC)) was 0 of 6.

In the case of [N-]=[N+]=NC1(N=[N+]=[N-])C(=O)Nc2ccc(Cl)cc2C1=O (configuration not stated), the survivor count (dose: 200.0 mg/kg/injection, schedule: Q01DX005 (ip), vehicle: Klucel (hydroxypropylcellulose) (HPC)) was 2 of 6.

With CCOc1ccccc1/C=N\NC(=O)C(=O)N/N=C\c1ccccc1OCC the survivor count [1] was 6 of 6, the survivor count [2] was 6 of 6 and the survivor count [3] was 6 of 6. The survivor count [4] was 6 of 6.

With COC1=C(N2CC2)C(=O)C(OC)=C(N2CC2)C1=O the T/C (dose: 2.6 mg/kg/injection, schedule: Q04DX003 (ip), vehicle: saline with Tween-80) was 130 % of control, the T/C (dose: 4.0 mg/kg/injection, schedule: Q04DX003 (ip), vehicle: saline with Tween-80) was 135 % of control and the survivor count (dose: 6.0 mg/kg/injection, schedule: Q04DX003 (ip), vehicle: saline with Tween-80) was 3 of 6. The survivor count (dose: 8.0 mg/kg/injection, schedule: Q04DX003 (ip), vehicle: saline with Tween-80) was 6 of 6 and the survivor count (dose: 16.0 mg/kg/injection, schedule: Q04DX003 (ip), vehicle: saline with Tween-80) was 2 of 6.

For CC12C(=O)C(Br)C1CC2S(=O)(=O)O (configuration not stated), the survivor count [5] was 6 of 6.

For CC1=CC2N(C=C1)C(c1ccccc1)=NON2c1cc(C)ccn1 (configuration not stated), the survivor count [6] was 6 of 6, the survivor count [7] was 6 of 6 and the survivor count [8] was 6 of 6.

For ClC1(Cl)C(=C=C2C3CC4CC(C3)CC2C4)C12C1CC3CC(C1)CC2C3 (configuration not stated), the survivor count [3] was 6 of 6.

In the case of CCCCN1CCC(CNc2ccnc3cc(Cl)ccc23)C1 (configuration not stated), the survivor count [10] was 0 of 6 and the survivor count [11] was 0 of 6.

With CCC/C(=N\NC(=S)N1CCCCCC1)c1ccccn1 the T/C [12] was 132 % of control, the T/C [10] was 133 % of control and the survivor count [10] was 3 of 5. The survivor count [11] was 0 of 5 and 3 of 6.

CSc1nc(Cl)c(Cl)c(C(F)(F)F)n1 was tested, and the survivor count [10] was 5 of 6 and the survivor count [11] was 0 of 6.

In the case of CCC1CN2CCO[Si](CC[Si](C)(C)C)(OCC2)O1 (configuration not stated), the survivor count (dose: 50.0 mg/kg/injection, schedule: Q01DX005 (ip), vehicle: Klucel (hydroxypropylcellulose) (HPC)) was 5 of 6 and the survivor count (dose: 100.0 mg/kg/injection, schedule: Q01DX005 (ip), vehicle: Klucel (hydroxypropylcellulose) (HPC)) was 5 of 6.

With CS/C(=C\c1ccc(C(=O)c2ccc(C)cc2)n1C)S(C)=O (configuration not stated) the survivor count [9] was 6 of 6.

With CN(C)C1CCc2[nH]c3c(F)cc(F)cc3c2C1 (configuration not stated) the survivor count [13] was 3 of 6 and the survivor count [14] was 1 of 6.

In the case of Cc1nc2cc[nH]n2c(=O)c1CCc1ccccc1, the survivor count [8] was 6 of 6.

c1ccc2c(c1)C1c3cccc[n+]3C2C2C1CC1C3c4ccccc4C(C12)[n+]1ccccc13 (configuration not stated) was tested, and the survivor count (dose: 12.5 mg/kg/injection, schedule: Q01DX005 (ip), vehicle: saline with Tween-80) was 3 of 6, the survivor count (dose: 25.0 mg/kg/injection, schedule: Q01DX005 (ip), vehicle: saline with Tween-80) was 0 of 6 and the survivor count [12] was 0 of 6. For the same compound, the survivor count [10] was 0 of 6 and the survivor count [11] was 0 of 6.

In the case of CC(C)C(Nc1ncnc2c1CCc1ccccc1-2)C(=O)O (configuration not stated), the survivor count (dose: 200.0 mg/kg/injection, schedule: Q04DX002 (ip), vehicle: saline with Tween-80) was 2 of 6.

CNc1cccc(NC)c1 was tested, and the survivor count (dose: 50.0 mg/kg/injection, schedule: Q01DX009 (ip), vehicle: water) was 1 of 6, the survivor count (dose: 100.0 mg/kg/injection, schedule: Q01DX009 (ip), vehicle: water) was 0 of 6 and the survivor count (dose: 200.0 mg/kg/injection, schedule: Q01DX009 (ip), vehicle: water) was 0 of 6. The survivor count (dose: 400.0 mg/kg/injection, schedule: Q01DX009 (ip), vehicle: water) was 0 of 6.

In the case of ClC(Cl)(Cl)Sn1cccn1, the survivor count [14] was 0 of 6.

For CC1=NC(C)(Cc2ccccc2)SC1c1ccccc1 (configuration not stated), the survivor count [11] was 3 of 6.

With O=C(O)c1cc2cc([N+](=O)[O-])ccc2[se]1 the survivor count (dose: 100.0 mg/kg/injection, schedule: Q01DX009 (ip), vehicle: saline) was 6 of 6.

In the case of NCC[Se][Se]CCN, the survivor count (dose: 12.5 mg/kg/injection, schedule: Q01DX009 (ip), vehicle: saline with Tween-80) was 3 of 6, the survivor count (dose: 12.5 mg/kg/injection, schedule: Q01DX009 (ip), vehicle: saline) was 1 of 6 and the survivor count [15] was 0 of 6. For the same compound, the survivor count [16] was 0 of 6, the survivor count [13] was 0 of 6 and the survivor count [14] was 0 of 6.

With C/C=C1\CC2(OC1=O)C(=O)NC(=O)NC2=O the survivor count (dose: 200.0 mg/kg/injection, schedule: Q01DX009 (ip), vehicle: saline) was 5 of 6.

With C=C1C(=O)O[C@@H]2[C@H](O)[C@@H](C)[C@@H]3C=CC(=O)[C@@]3(C)[C@H](OC(=O)C=C(C)C)[C@H]12 the T/C (dose: 1.56 mg/kg/injection, schedule: Q01DX009 (ip), vehicle: saline) was 140 % of control, the T/C (dose: 3.12 mg/kg/injection, schedule: Q01DX009 (ip), vehicle: saline with Tween-80) was 131 % of control and the T/C (dose: 6.25 mg/kg/injection, schedule: Q01DX009 (ip), vehicle: saline) was 143 % of control. For the same compound, the survivor count [15] was 1 of 6 and 5 of 6, the T/C (dose: 25.0 mg/kg/injection, schedule: Q01DX009 (ip), vehicle: saline) was 129 % of control and the survivor count [16] was 0 of 6.
